{"source": "PubChem BioAssay AID720710 (VTT Finland, 2013)", "aim": "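Genes whose loss lowers DNA synthesis when an oncogene drives replication stress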 (primary screen)", "cell system": "human U-2 OS bone cancer cells, parental and a cyclin E (CCNE1) overexpressing line", "reagents": "single siRNA against human genes, 1 µM siRNA in the printed spot mix", "time to read-out": "67 h", "conditions": "half the arrays: hydroxyurea 2 mM for 16 h, then 3 h recovery; other arrays untreated", "detection": "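EdU click signal imaged per DAPI-stained nucleus at 67 h; each spot divided by its subgrid median, then z-scored relative to non-targeting control spots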", "reading the numbers": "EdU z-score, cyclin E line, hydroxyurea and EdU z-score, parental, hydroxyurea: higher = more DNA synthesis than non-targeting controls", "note": "In all, the deposit lists about 1,380 reagents; shown is a random part of them. 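One array per condition without replicates; hydroxyurea arrays received 2 mM for 16 h plus 3 h recovery.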 The numbers tell different reagents against one gene apart. Further read-outs or replicates are left out here."}
{"gene": "ALKBH3", "siRNA no.": 1, "EdU z-score, cyclin E line, hydroxyurea": 0.116, "EdU z-score, parental, hydroxyurea": -0.669}
{"gene": "ALKBH3", "siRNA no.": 2, "EdU z-score, cyclin E line, hydroxyurea": 0.634, "EdU z-score, parental, hydroxyurea": 1.1}
{"gene": "H4C14", "siRNA no.": 1, "EdU z-score, cyclin E line, hydroxyurea": -1.55, "EdU z-score, parental, hydroxyurea": -0.738}
{"gene": "H4C14", "siRNA no.": 2, "EdU z-score, cyclin E line, hydroxyurea": -0.009, "EdU z-score, parental, hydroxyurea": -0.144}
{"gene": "ALKBH1", "siRNA no.": 1, "EdU z-score, cyclin E line, hydroxyurea": -1.93, "EdU z-score, parental, hydroxyurea": -1.18}
{"gene": "ALKBH1", "siRNA no.": 2, "EdU z-score, cyclin E line, hydroxyurea": -0.829, "EdU z-score, parental, hydroxyurea": -0.957}
{"gene": "H4C12", "siRNA no.": 1, "EdU z-score, cyclin E line, hydroxyurea": -0.239, "EdU z-score, parental, hydroxyurea": 1.22}
{"gene": "H4C12", "siRNA no.": 2, "EdU z-score, cyclin E line, hydroxyurea": -0.0643, "EdU z-score, parental, hydroxyurea": 2.54}
{"gene": "HDAC8", "siRNA no.": 1, "EdU z-score, cyclin E line, hydroxyurea": -0.205, "EdU z-score, parental, hydroxyurea": 0.737}
{"gene": "HDAC8", "siRNA no.": 2, "EdU z-score, cyclin E line, hydroxyurea": 0.505, "EdU z-score, parental, hydroxyurea": 1.63}
{"gene": "KMT2D", "siRNA no.": 1, "EdU z-score, cyclin E line, hydroxyurea": -2.07, "EdU z-score, parental, hydroxyurea": -2.52}
{"gene": "KMT2D", "siRNA no.": 2, "EdU z-score, cyclin E line, hydroxyurea": -2.05, "EdU z-score, parental, hydroxyurea": -1}
{"gene": "SMUG1", "siRNA no.": 1, "EdU z-score, cyclin E line, hydroxyurea": 0.382, "EdU z-score, parental, hydroxyurea": -0.109}
{"gene": "SMUG1", "siRNA no.": 2, "EdU z-score, cyclin E line, hydroxyurea": 0.691, "EdU z-score, parental, hydroxyurea": 1.05}
{"gene": "DTL", "siRNA no.": 1, "EdU z-score, cyclin E line, hydroxyurea": -1.59, "EdU z-score, parental, hydroxyurea": 0.4}
{"gene": "DTL", "siRNA no.": 2, "EdU z-score, cyclin E line, hydroxyurea": 0.697, "EdU z-score, parental, hydroxyurea": 1.24}
{"gene": "LOC642954", "siRNA no.": 1, "EdU z-score, cyclin E line, hydroxyurea": -0.575, "EdU z-score, parental, hydroxyurea": 0.253}
{"gene": "LOC642954", "siRNA no.": 2, "EdU z-score, cyclin E line, hydroxyurea": 2.16, "EdU z-score, parental, hydroxyurea": 1.03}
{"gene": "RAD51C", "siRNA no.": 1, "EdU z-score, cyclin E line, hydroxyurea": 1.18, "EdU z-score, parental, hydroxyurea": 0.162}
{"gene": "RAD51C", "siRNA no.": 2, "EdU z-score, cyclin E line, hydroxyurea": 2.08, "EdU z-score, parental, hydroxyurea": 1.57}
{"gene": "HMOX1", "siRNA no.": 1, "EdU z-score, cyclin E line, hydroxyurea": -1.94, "EdU z-score, parental, hydroxyurea": 0.832}
{"gene": "HMOX1", "siRNA no.": 2, "EdU z-score, cyclin E line, hydroxyurea": 0.0529, "EdU z-score, parental, hydroxyurea": 1.03}
{"gene": "NAP1L2", "siRNA no.": 1, "EdU z-score, cyclin E line, hydroxyurea": 0.279, "EdU z-score, parental, hydroxyurea": -0.837}
{"gene": "NAP1L2", "siRNA no.": 2, "EdU z-score, cyclin E line, hydroxyurea": 0.826, "EdU z-score, parental, hydroxyurea": 0.243}
{"gene": "SLC35F1", "siRNA no.": 1, "EdU z-score, cyclin E line, hydroxyurea": -0.459, "EdU z-score, parental, hydroxyurea": -2.25}
{"gene": "SLC35F1", "siRNA no.": 2, "EdU z-score, cyclin E line, hydroxyurea": -0.14, "EdU z-score, parental, hydroxyurea": 3.8}
{"gene": "LOC728849", "siRNA no.": 1, "EdU z-score, cyclin E line, hydroxyurea": -3.49, "EdU z-score, parental, hydroxyurea": 0.536}
{"gene": "LOC728849", "siRNA no.": 2, "EdU z-score, cyclin E line, hydroxyurea": 0.638, "EdU z-score, parental, hydroxyurea": 1.68}
{"gene": "SIRT3", "siRNA no.": 1, "EdU z-score, cyclin E line, hydroxyurea": -2.34, "EdU z-score, parental, hydroxyurea": -7.97}
{"gene": "SIRT3", "siRNA no.": 2, "EdU z-score, cyclin E line, hydroxyurea": -0.361, "EdU z-score, parental, hydroxyurea": 0.594}
{"gene": "CBX1", "siRNA no.": 1, "EdU z-score, cyclin E line, hydroxyurea": -0.697, "EdU z-score, parental, hydroxyurea": -1.76}
{"gene": "CBX1", "siRNA no.": 2, "EdU z-score, cyclin E line, hydroxyurea": 0.575, "EdU z-score, parental, hydroxyurea": -0.613}

In a second layout: entries from further up
| gene | siRNA no. | EdU z-score, cyclin E line, hydroxyurea | EdU z-score, parental, hydroxyurea |
| --- | --- | --- | --- |
| ALKBH3 | 2 | 0.634 | 1.1 |
| H4C14 | 1 | -1.55 | -0.738 |
